Test results taken from PubChem BioAssay AID248 (DTP/NCI, 2004).
The list is a part of this screen's results and no random one: it is rich in T/C values a quarter to a half above the control, in often repeated tests (any T/C) and in doses without a T/C. Other doses and runs of a compound stand elsewhere. T/C gives the treated animals as a percentage of the vehicle group. Some doses have a count of surviving animals in place of a T/C: the source holds a T/C of zero for them, seemingly a mark for toxic or unscored doses. Some survivor counts are full or nearly so, which does not show that the dose was tolerated: survival well below the control is almost never listed, so the zero probably covers shortened survival too. Survivors were counted at the toxicity check, usually on the fifth day, unless a day is given; later deaths do not show. Schedules are NCI's codes, taken here to give the interval after Q, in days (D) or hours (H), and the number of doses after X. Some molecules as drawn cover several salts, stereoisomers or complexes of the source; a dose is that of the sample tested. For survival time, the PubChem record calls one and a half times the control and up active, and a quarter to a half above the control has no call in these data; cut-offs in other NCI protocols can differ. Some schedule codes hold Z or #, which are not explained here. Some T/C values carry the count of animals alive at the toxicity check (mostly the fifth day); without a count, all were alive then. Some doses were run more than once; the results are listed from low to high.

System: L1210 leukemia ip in BDF1 mice, survival T/C
Test: NCI In Vivo Anticancer Drug Screen. Data for tumor model L1210 Leukemia (intraperitoneal) in B6D2F1 (BDF1) mice
Conditions: T/C endpoint: mean survival time, higher T/C = longer survival

`Cc1c2ccncc2c(C)c2c1[nH]c1ccccc12` was tested, and the T/C (dose: 18.75 mg/kg/injection, schedule: Q04DX003 (ip), vehicle: saline with Tween-80) was 146 % of control [9 of 10 alive], the T/C (dose: 18.75 mg/kg/injection, schedule: Q08DX002 (ip), vehicle: steroid suspending solution) was 132 % of control and the T/C (dose: 18.8 mg/kg/injection, schedule: Q01DX Z (oral), vehicle: carboxymethylcellulose (CMC)) was 142 % of control. The T/C (dose: 20.0 mg/kg/injection, schedule: Q01DX009 (ip), vehicle: saline) was 144 % of control, the T/C (dose: 20.0 mg/kg/injection, schedule: Q01DX015 (oral), vehicle: carboxymethylcellulose (CMC)) was 125 % of control and the T/C (dose: 20.0 mg/kg/injection, schedule: Q04DX003 (ip), vehicle: saline with Tween-80) was 146 % of control. The T/C (dose: 20.0 mg/kg/injection, schedule: Q## X008 (ip), vehicle: other) was 129 % of control, the T/C (dose: 25.0 mg/kg/injection, schedule: Q01DX005 (oral), vehicle: saline) was 130 % of control and the survivor count (dose: 25.0 mg/kg/injection, schedule: Q01DX009 (ip), vehicle: citric acid) was 10 of 10. The survivor count (dose: 25.0 mg/kg/injection, schedule: Q01DX009 (ip), vehicle: clinical formulation) was 10 of 10, the T/C (dose: 25.0 mg/kg/injection, schedule: Q01DX009 (ip), vehicle: saline with Tween-80) was 137 % of control and the T/C (dose: 25.0 mg/kg/injection, schedule: Q01DX Z (oral), vehicle: saline) was 127 % of control. For the same compound, the T/C (dose: 25.0 mg/kg/injection, schedule: Q04DX003 (ip), vehicle: saline with Tween-80) was 128, 134, 138, 142, 161 % of control, the T/C (dose: 25.0 mg/kg/injection, schedule: Q04DX003 (ip), vehicle: saline) was 133 % of control and the T/C (dose: 30.0 mg/kg/injection, schedule: Q01DX009 (ip), vehicle: saline) was 140 % of control. The T/C (dose: 32.0 mg/kg/injection, schedule: Q01DX001 (ip), vehicle: clinical formulation) was 140 % of control, the T/C (dose: 32.0 mg/kg/injection, schedule: Q01DX001 (ip), vehicle: saline with Tween-80) was 126 % of control and the T/C (dose: 32.0 mg/kg/injection, schedule: Q01DX009 (ip), vehicle: Klucel (hydroxypropylcellulose) (HPC)) was 106 [5 of 6 alive], 138, 157, 164, 166, 168 % of control. For the same compound, the survivor count (dose: 32.0 mg/kg/injection, schedule: Q01DX009 (ip), vehicle: clinical formulation) was 10 of 10, the T/C (dose: 32.0 mg/kg/injection, schedule: Q01DX009 (ip), vehicle: other, evaluated on day 23) was 88 % of control and the T/C (dose: 32.0 mg/kg/injection, schedule: Q01DX009 (ip), vehicle: other, evaluated on day 30) was 107 and 226 % of control. For the same compound, the T/C (dose: 32.0 mg/kg/injection, schedule: Q01DX009 (ip), vehicle: other, evaluated on day 40) was 171 % of control, the T/C (dose: 32.0 mg/kg/injection, schedule: Q01DX009 (ip), vehicle: saline with Tween-80, evaluated on day 30) was 104, 116, 122, 151, 158, 168, 172, 178, 180 [5 of 6 alive], 206 % of control and the T/C (dose: 32.0 mg/kg/injection, schedule: Q01DX009 (ip), vehicle: saline with Tween-80, evaluated on day 38) was 97 % of control. The T/C (dose: 32.0 mg/kg/injection, schedule: Q01DX009 (ip), vehicle: saline with Tween-80, evaluated on day 60) was 114, 117, 140 % of control, the T/C (dose: 32.0 mg/kg/injection, schedule: Q01DX009 (ip), vehicle: saline, evaluated on day 23) was 176 % of control and the T/C (dose: 32.0 mg/kg/injection, schedule: Q01DX009 (ip), vehicle: saline, evaluated on day 30) was 100, 136, 240 % of control. For the same compound, the T/C (dose: 32.0 mg/kg/injection, schedule: Q01DX009 (ip), vehicle: water) was 129 % of control, the T/C (dose: 32.0 mg/kg/injection, schedule: Q01DX009 (sc), vehicle: clinical formulation) was 131 % of control and the survivor count (dose: 32.0 mg/kg/injection, schedule: Q03HX008 (ip), vehicle: clinical formulation) was 4 of 10. The survivor count (dose: 32.0 mg/kg/injection, schedule: Q03HX016 (ip), vehicle: clinical formulation) was 1 of 10, the T/C (dose: 32.0 mg/kg/injection, schedule: Q03HX016 (oral), vehicle: clinical formulation) was 134 % of control and the survivor count (dose: 32.0 mg/kg/injection, schedule: Q03HX024 (ip), vehicle: acid diluted with saline) was 10 of 10. The survivor count (dose: 32.0 mg/kg/injection, schedule: Q03HX024 (ip), vehicle: clinical formulation) was 3 of 10, the survivor count (dose: 32.0 mg/kg/injection, schedule: Q03HX024 (oral), vehicle: clinical formulation) was 7 of 9 and the T/C (dose: 32.0 mg/kg/injection, schedule: Q04DX003 (oral), vehicle: clinical formulation) was 128 % of control. The T/C (dose: 32.0 mg/kg/injection, schedule: Q08DX002 (ip), vehicle: clinical formulation) was 144 % of control, the T/C (dose: 32.0 mg/kg/injection, schedule: Q## X003 (ip), vehicle: other) was 139 % of control and the T/C (dose: 32.0 mg/kg/injection, schedule: Q## X024 (ip), vehicle: other) was 144 % of control. For the same compound, the T/C (dose: 37.5 mg/kg/injection, schedule: Q01DX001 (ip), vehicle: other) was 132, 140 [9 of 10 alive], 141, 145 % of control [9 of 10 alive], the T/C (dose: 37.5 mg/kg/injection, schedule: Q01DX001 (ip), vehicle: saline) was 136 % of control and the survivor count (dose: 37.5 mg/kg/injection, schedule: Q01DX001 (oral), vehicle: other) was 4 of 10. For the same compound, the T/C (dose: 37.5 mg/kg/injection, schedule: Q01DX001 (sc), vehicle: other) was 128 % of control [9 of 10 alive].
